# Measured values from patent publication US20090269346A1.
# The chains behind the UniProt entries cited, without tags or fusion partners. Where a name states a change or a piece, a line headed by the entry shows the natural chain unless it says otherwise. Residues count along the entry.
# UniProt P98164, residues 1025-1102: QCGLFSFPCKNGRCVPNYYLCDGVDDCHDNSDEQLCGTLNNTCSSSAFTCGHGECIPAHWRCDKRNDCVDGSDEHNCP
# UniProt P30533: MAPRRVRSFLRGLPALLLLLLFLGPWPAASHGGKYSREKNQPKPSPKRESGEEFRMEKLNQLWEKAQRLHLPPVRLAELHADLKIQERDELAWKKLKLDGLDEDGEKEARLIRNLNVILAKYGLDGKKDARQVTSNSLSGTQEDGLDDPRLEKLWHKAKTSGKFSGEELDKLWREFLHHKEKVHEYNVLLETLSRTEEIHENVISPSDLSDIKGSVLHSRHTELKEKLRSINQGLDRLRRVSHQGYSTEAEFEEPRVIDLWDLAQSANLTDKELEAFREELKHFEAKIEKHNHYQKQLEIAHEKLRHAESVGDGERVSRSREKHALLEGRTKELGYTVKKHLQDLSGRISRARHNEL
# These are yes or no findings as the source states them, for the method shown. Some binding calls cover weakened binding; strength is not graded here.
# Target: LRP2 CR89 (human) (UniProt P98164)
# Assay: solid-phase binding assay: CR protein coated on the plate, ligand titrated, anti-RAP polyclonal and HRP secondary, OD 450 nm
substance,measurement,value
"RAP d3 E251K, K256A, K270E (from UniProt P30533 235-353) (ligand)",binding,binds
